# Test results reported in publication PMC6668851.
# Assays:
# [1] = target: T1, human wild-type UBIAD1 fused with a TAP tag at the C terminus (Hs-UBIAD1-WT-TAP) (human) (UniProt Q9Y5Z9); assay: affinity purification with mass spectrometry; tandem affinity purification from HEK-293 stable cells: lysis in 1% digitonin, PBS, 5 mM EDTA, 5 mM EGTA; rabbit IgG agarose, TEV release, anti-Flag M2 agarose, 3x Flag peptide elution; tandem mass spectrometry
# T1 sequence: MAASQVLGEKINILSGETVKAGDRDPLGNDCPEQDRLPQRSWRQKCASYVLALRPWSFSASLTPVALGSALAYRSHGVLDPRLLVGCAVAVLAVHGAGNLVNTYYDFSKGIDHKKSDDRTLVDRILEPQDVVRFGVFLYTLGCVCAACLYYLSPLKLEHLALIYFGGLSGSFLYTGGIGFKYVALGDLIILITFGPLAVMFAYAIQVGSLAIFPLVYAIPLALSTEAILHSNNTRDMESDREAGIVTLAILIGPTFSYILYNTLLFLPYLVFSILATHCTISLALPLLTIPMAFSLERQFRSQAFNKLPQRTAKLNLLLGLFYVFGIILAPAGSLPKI
# [2] = target: T2, human UBIAD1 (G186R) fused with a TAP tag at the C terminus (Hs-UBIAD1-G186R-TAP) (human) (UniProt Q9Y5Z9); assay: as above
# T2 sequence: T1 sequence with G186R
substance,measurement,setting,value
"VCP/p97, endogenous in HEK-293 (from UniProt P55072 1-806)",binding,[1],binds
same,binding,[2],binds

# Where a chain is given by its changes, count along the chain named. Results are given in words; binding and its absence hold for the method and conditions named. Binding seen in cells or lysates may run through a third protein. Here binding means that the protein was enriched with, or labelled near, the bait; the list need not be complete. Tags and fused reporters may be left off the sequences shown.
